Values from PubChem BioAssay AID1259272 (Sanger Institute, 2017)

- Test: 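Find kinases needed for SW1116 growth and partners for drug combinations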 (primary screen)
- Cells: SW1116 human colorectal cancer cells
- Reagent: siRNA pool against human genes
- Treatment: anchor drugs BYL719 (1 µM), cetuximab (5 µg/ml) or trametinib (10 nM), or DMSO vehicle; exposure length not given
- Measured: 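Cell survival as a fraction of wells given a non-targeting pool, averaged over replicates; robust z-score without drug; synergy score for each of BYL719, cetuximab and trametinib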
- Scale: viability z-score, no drug: higher = more cells remaining; strongly negative means essential gene
- Rule for the call: 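a robust z-score under -3 with siRNA and no drug marks the gene essential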
- Meaning of the calls: active = essential (knock-down alone); inactive = no change
In all, the deposit lists 794 reagents; this is a part drawn at random. 7 of them (0.88%) count as active. 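Essential calls reflect knock-down without drug only, not synergy with drugs; drug exposure length not given.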 Not all columns of the deposit are shown. Not stated in the record: the amount of reagent, the time to read-out.

The opening 2 entries, ahead of the listing:
gene | viability z-score, no drug | Outcome
DSTYK | 0.842 | inactive
MAP3K9 | -1.81 | inactive

The list itself, repeating the preview:
gene | viability z-score, no drug | Outcome
DSTYK | 0.842 | inactive
MAP3K9 | -1.81 | inactive
CLSPN | -0.346 | inactive
KRAS | -2.98 | inactive
VRK3 | -0.761 | inactive
PTPN11 | -0.229 | inactive
CASP8 | 0.842 | inactive
NEK11 | -0.92 | inactive
TGFBR2 | -0.252 | inactive
PI4K2B | -1.01 | inactive
SMAD4 | -1.59 | inactive
ABL1 | -0.13 | inactive
PRKY | 0.348 | inactive
FGFR3 | 0.708 | inactive
ROR2 | 0.287 | inactive
PRPS1L1 | 0.107 | inactive
SOX9 | 0.701 | inactive
NR4A2 | -0.734 | inactive
CRIM1 | 0.842 | inactive
MAP4K2 | 0.553 | inactive
